These results are taken from PMC5576485.

Sequences of proteins named here, by UniProt entry; tags and fusion partners are left off.
UniProt E9PZZ1: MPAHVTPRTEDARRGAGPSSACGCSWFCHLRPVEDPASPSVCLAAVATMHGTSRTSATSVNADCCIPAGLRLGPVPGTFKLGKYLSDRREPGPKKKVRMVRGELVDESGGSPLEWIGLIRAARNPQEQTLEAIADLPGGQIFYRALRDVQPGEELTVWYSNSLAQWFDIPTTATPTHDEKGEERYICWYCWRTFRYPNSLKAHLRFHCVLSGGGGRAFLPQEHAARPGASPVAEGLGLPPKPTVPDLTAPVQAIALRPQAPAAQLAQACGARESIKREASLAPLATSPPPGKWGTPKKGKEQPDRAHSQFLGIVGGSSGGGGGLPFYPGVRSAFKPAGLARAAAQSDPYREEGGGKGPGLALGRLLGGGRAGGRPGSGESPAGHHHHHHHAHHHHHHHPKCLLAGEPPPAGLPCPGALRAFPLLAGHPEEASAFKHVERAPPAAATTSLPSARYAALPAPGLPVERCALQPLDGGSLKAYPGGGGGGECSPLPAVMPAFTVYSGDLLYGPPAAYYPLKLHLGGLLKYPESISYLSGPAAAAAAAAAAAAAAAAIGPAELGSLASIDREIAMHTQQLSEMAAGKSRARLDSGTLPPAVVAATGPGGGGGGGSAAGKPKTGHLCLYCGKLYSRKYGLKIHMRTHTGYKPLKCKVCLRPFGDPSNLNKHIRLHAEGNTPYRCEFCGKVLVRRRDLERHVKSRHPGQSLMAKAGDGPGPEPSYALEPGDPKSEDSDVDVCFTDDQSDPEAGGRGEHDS

No constants are given. Whether binding was seen depends on the method and setting. In cells and extracts the contact can be indirect. Some results given as binding are weak or reduced against the parent protein; the word gives no strength. Sequences can lack the tags named with a protein.

The labels stand for the following.
B1: MYC-tagged ASCL1 (protein, UniProt Q02067 1-231)
chain: MESSGKMESGAGQQPQPPQPFLPPAACFFATAAAAAAAAAAAAQSAQQQQPQAPPQQAPQLSPVADSQPSGGGHKSAAKQVKRQRSSSPELMRCKRRLNFSGFGYSLPQQQPAAVARRNERERNRVKLVNLGFATLREHVPNGAANKKMSKVETLRSAVEYIRALQQLLDEHDAVSAAFQAGVLSPTISPNYSNDLNSMAGSPVSSYSSDEGSYDPLSPEEQELLDFTNWF
B2: MYC-tagged PTF1A (protein, UniProt Q9QX98 1-324)
chain: MDAVLLEHFPGGLDTFPSPYFDEEDFFTDQSSRDPLEDSDELLGDEQAEVEFLSHQLHEYCYRDGACLLLQPAPSAAPHALAPPPLGDPGEPEDNVSYCCDAGAPLAAFPYSPGSPPSCLAYPCAAVLSPGARLGGLNGAAAAAAARRRRRVRSEAELQQLRQAANVRERRRMQSINDAFEGLRSHIPTLPYEKRLSKVDTLRLAIGYINFLSELVQADLPLRGSGAGGCGGPGGSRHLGEDSPGNQAQKVIICHRGTRSPSPSDPDYGLPPLAGHSLSWTDEKQLKEQNIIRTAKVWTPEDPRKLNSKSFDNIENEPPFEFVS
B3: MYC-tagged NEUROG1 (protein, UniProt P70660 1-244)
chain: MPAPLETCISDLDCSSSNSSSDLSSFLTDEEDCARLQPLASTSGLSVPARRSAPALSGASNVPGAQDEEQERRRRRGRARVRSEALLHSLRRSRRVKANDRERNRMHNLNAALDALRSVLPSFPDDTKLTKIETLRFAYNYIWALAETLRLADQGLPGGSARERLLPPQCVPCLPGPPSPASDTESWGSGAAASPCATVASPLSDPSSPSASEDFTYGPGDPLFSFPGLPKDLLHTTPCFIPYH

This assay concerns the target FLAG-tagged PRDM13 (UniProt E9PZZ1). Kind of assay: co-IP; HEK293 cells transfected with PRDM13^FLAG and the other factor, total cell lysate in IP lysis buffer after 48 hr; A/G beads conjugated with anti-FLAG antibodies; Western blots with anti-cMYC, anti-FLAG, anti-NEUROG1 or anti-NEUROG2. On the technique in general: Immunoblotting shows a protein as a band on a membrane.
Take B1: the binding result was “binds”. For B2, the binding entry is given as “binds”. Consider B3, for which the binding entry is on record as “binds”.
